# According to patent publication US11370757B2, “Photocleavable nitroindoline-based crosslinkers” (priority 2017, dated 2022):
# Not every detail of the peptide structures is certain; ends, links or a residue may be inferred. *1 amine or outer side, *2 acyl side, *3 side chain or, on linkers, in order; H or OH if unused. Where a SMILES comes first, the peptide text is derived from it. [ ]: non-standard residue; d: D form. X1 = O=C(c1cc2c(c([N+](=O)[O-])c1)N([*:1])CC2)[*:2]; Hyp = O=C(O)[C@@H]1C[C@@H](O)CN1
# Assay: Two-photon photolysis followed by fluorescence decay under a femtosecond laser at 710 nm
# Format: physicochemical
# Details: 710 nm femtosecond laser, 100 to 200 mW, film/gel on microscope slide, slope 2 = two-photon process
# Text: Two-photon microscope. The details of the in-housed developed two-photon microscope was previously described (Acosta et al., (2014) Biomed. Opt. Express 5, 3990-4001). In summary the light source is a mode-locked Ti:Sapphire laser (Maitai H P, 690-1040 nm, 100 fs, 80 MHz, Newport, Santa Clara, Calif.). The inventors have used 710 nm light to achieve two-photon excitation of N-acyl-nitroindoline. The home-built x-y scanner (polygon, galvanometer) can achieve 30 frames/s scanning rate. The laser power at the sample site is varied by rotating a half-wave plate in front of a polarizer. The fluorescence signal from the sample are detected in three spectral channels with photomultiplier tubes (PMTs): red (570-616 nm), green (500-550 nm), and blue (417-477 nm). […]
# Several spots within the sample were irradiated under the two-photon microscope using 710 nm light with varying excitation laser output powers ranging from 100 to 200 mW with increments of 25 mW. […] Therefore, as the photolysis reaction progresses, the fluorescent peptide 1 is consumed, and consequentially a decrease in average fluorescence intensity at the irradiation site is observed. For each irradiated spot, a time series of fluorescence images was recorded at every minute to track the fluorescence intensity decay throughout the photo induced reaction process (FIG. 4a-4d). […]
structure (smiles),measurement,setting,value
NC(=O)CNC(=O)[C@@H]1CCCN1C(=O)[C@@H]1C[C@@H](O)CN1C(=O)CNC(=O)[C@@H]1CCCN1C(=O)[C@@H]1CCCN1C(=O)c1cc2c(c([N+](=O)[O-])c1)N(C(=O)CNC(=O)[C@@H]1CCCN1C(=O)[C@@H]1C[C@@H](O)CN1C(=O)CNC(=O)[C@@H]1CCCN1C(=O)[C@@H]1CCCN1C(=O)c1cc3c(c([N+](=O)[O-])c1)N(C(=O)CNC(=O)[C@@H]1CCCN1C(=O)[C@@H]1C[C@@H](O)CN1C(=O)CNC(=O)[C@@H]1CCCN1C(=O)[C@@H]1CCCN1C(=O)c1cc4c(c([N+](=O)[O-])c1)N(C(=O)CNC(=O)[C@@H]1CCCN1C(=O)[C@@H]1C[C@@H](O)CN1C(=O)CNC(=O)[C@@H]1CCCN1C(=O)[C@@H]1CCCN1C(=O)c1cc5c(c([N+](=O)[O-])c1)N(C(=O)CNC(=O)[C@@H]1CCCN1C(=O)[C@@H]1C[C@@H](O)CN1C(=O)CNC(=O)[C@@H]1CCCN1C(=O)[C@@H]1CCCN1)CC5)CC4)CC3)CC2 [peptide 1] (H-PPG[Hyp]PG[X1]PPG[Hyp]PG[X1]PPG[Hyp]PG[X1]PPG[Hyp]PG[X1]PPG[Hyp]PG-NH2),slope of the regression line in the double-log plot of reaction rate vs. laser intensity,,2.007
same,slope of the regression line in the double-log plot of reaction rate vs. laser intensity,listed as Peptide 1,2
